These results are taken from ChEMBL document CHEMBL2203022, “Design, synthesis and antimicrobial evaluation of novel 1-benzyl 2-butyl-4-chloroimidazole embodied 4-azafluorenones via molecular hybridization approach” (2012).

What all share (format): functional
One assay has as its system Pseudomonas aeruginosa. The experiment in a line: Antibacterial activity against Pseudomonas aeruginosa MTCC 2453 at 10 ug per disk after 24 hrs by disc diffusion method. In a few lines: (§1)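 Standard 0.5 McFarland inoculum spread evenly over nutrient agar plates with a sterile L-shaped glass spreader. Plates incubated 24 h at 37 °C. Gentamicin as reference standard. Read-out: zone of inhibition in mm, measured in triplicate and compared with control and standard.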
Background: Agar diffusion results depend on both activity and mobility in agar.

Another assay deals with Escherichia coli. The experiment in a line: Antibacterial activity against Escherichia coli MTCC 1573 at 10 ug per disk after 24 hrs by disc diffusion method. In a few lines:
as §1

The next assay relates to Staphylococcus aureus. The experiment in a line: Antibacterial activity against Staphylococcus aureus MTCC 1430 at 10 ug per disk after 24 hrs by disc diffusion method. In a few lines:
as §1

Another assay deals with Candida albicans. The experiment in a line: Antifungal activity against Candida albicans MTCC 7253 at 10 ug per disk after 2 to 3 days by disc diffusion method. The method in brief:
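Fungal inoculum: a loopful of each strain suspended in saline, spread evenly on yeast extract potato dextrose agar with a sterile glass spreader. Sterile 5 mm discs loaded with test compound in DMSO placed on the agar. Plates incubated 2–3 days at room temperature. Nystatin as reference standard. Zones of inhibition measured and compared with control and standard.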

In the case of GENTAMICIN, the inhibition zone (IZ) came to 15 mm in the assay on Pseudomonas aeruginosa, 12 mm with Escherichia coli and 15 mm with Staphylococcus aureus.

On to NYSTATIN, for which, in the assay with Candida albicans, the inhibition zone (IZ) is 8 mm.
